From paper PMC8106185
For at least one entry, the source does not settle the construct or the ends of the probe. For part of these data: The comparison behind a weaker result is the experiment's own reference, which may not be listed here. For part of these data: At least one verdict was read from the data and is not stated in words by the source.

Tests used:
[1] = test system: SkCSP1 (Symbiodinium kawagutii); test: competition with a labelled probe; settings: cold dsDNA 1-80x vs ssDNA probe, band mostly stable, cold oligo sequence uncertain; EMSA: 20 uL of '2x binding buffer' (20 mM Tris-Cl pH 7.0, 20 mM MgCl2, 50 mM KCl, 10% glycerol, 1 mM DTT), 30 min, room temperature, 1 ng probe; recombinant protein; protein details: GST removed by thrombin; label: 5'-32P
[2] = test system: LpCSP1 (Lingulodinium polyedra); test: EMSA; settings: 0.5-3 ug protein, EMSA: 20 uL of '2x binding buffer' (20 mM Tris-Cl pH 7.0, 20 mM MgCl2, 50 mM KCl, 10% glycerol, 1 mM DTT), 30 min, room temperature, 1 ng probe, recombinant protein, protein details: GST removed by thrombin, label: 5'-32P
[3] = test system: SkCSP1 (Symbiodinium kawagutii); test: EMSA; settings: 0.5-3 ug protein, EMSA: 20 uL of '2x binding buffer' (20 mM Tris-Cl pH 7.0, 20 mM MgCl2, 50 mM KCl, 10% glycerol, 1 mM DTT), 30 min, room temperature, 1 ng probe, recombinant protein, protein details: GST removed by thrombin, label: 5'-32P
[4] = test system: SkCSP2 (Symbiodinium kawagutii); test: EMSA; settings: 0.5-3 ug protein, EMSA: 20 uL of '2x binding buffer' (20 mM Tris-Cl pH 7.0, 20 mM MgCl2, 50 mM KCl, 10% glycerol, 1 mM DTT), 30 min, room temperature, 1 ng probe, recombinant protein, protein details: GST removed by thrombin, label: 5'-32P
[5] = test system: SkCSP3 (Symbiodinium kawagutii); test: EMSA; settings: 0.5-3 ug protein, EMSA: 20 uL of '2x binding buffer' (20 mM Tris-Cl pH 7.0, 20 mM MgCl2, 50 mM KCl, 10% glycerol, 1 mM DTT), 30 min, room temperature, 1 ng probe, recombinant protein, protein details: GST removed by thrombin, label: 5'-32P

Row | Sequence | binding result [1] | binding result [2] | binding result [3] | binding result [4] | binding result [5] | binding result ([2]; single-stranded DNA) | binding result ([3]; single-stranded DNA) | binding result ([4]; single-stranded DNA) | binding result ([5]; single-stranded DNA)
1 | GGCGCCCTCCCTCCGCCCTCCCTCA (double strand) [25 bp C-rich dsDNA] | binds more weakly | binds | binds | binds | binds |  |  |  | 
2 | TCCGCCCTCCCTCCCCCCGCCCTCCCTCCCCA [32 nt C-rich ssDNA] |  |  |  |  |  | binds | binds | binds | binds
